Data as given in PubChem BioAssay AID602313 (National Center for Advancing Translational Sciences (NCATS), 2012).
In all, about 390,000 compounds went through this assay and about 760 (0.19%) were called active. The shares of active, inactive and inconclusive entries below differ from those in the screen. Calls follow the shape of the dose curve; as a rule, active = well fitted inhibition curve with a large enough effect; inconclusive = small, poorly fitted or top-dose-only effect; inactive = flat fitted curve, though single readings scatter. A potency beside an inconclusive call is a rough fit, not a confirmed value.

Experiment: qHTS for Inhibitors of Vif-A3F Interactions: qHTS; also: nearly all actives have a fitted effect of over 65% in size; as to activity, negative = active: % of control where 0% means no effect
Conditions: HeLa A3F-eYFP + Vif (tagged APOBEC3F with the HIV-1 protein that degrades it), YFP fluorescence increase; series mostly up to 46.1 µM; activity, negative = active: at the top concentration
In short: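 HeLa cells stably expressing Vif plus C-terminally eYFP-tagged A3F were seeded, incubated overnight at 37 deg C, dosed with compound, incubated overnight again at 37 deg C. Yellow fluorescence (Ex 488/Em 500-530) reported blocked Vif-mediated A3F-eYFP degradation.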
Potency is read from the fitted curve at half-maximal effect.

Compound | Potency | activity, negative = active
CCOC(=O)c1n[nH]n2c1nc(=S)c1ccccc12 | inconclusive: 35.5 µM [inhibitor, single point] | 
[O-][n+]1onc2c3cc(-c4ccccc4)nnc3ccc21 | inconclusive: 35.5 µM [inhibitor, single point] | 
COc1cc(/C=C/C(=O)c2ccc3c(c2)OCO3)cc(OC)c1OC |  | inactive: -3.27%
O=S(=O)(Nc1nc2ccccc2nc1Cl)c1ccc2ccccc2c1 | inconclusive: 25.1 µM [inhibitor, single point] | 
COC(=O)c1[nH]c2cc(OC)ccc2c1NC(=O)CN1CCN(c2cccc(C)c2)C(C)C1 (stereo not drawn) | inconclusive: 12.6 µM [inhibitor, single point] | 
N#C/C(=C\Nc1ccc(Cl)cn1)S(=O)(=O)c1ccccc1 |  | inactive: 7.17%
CCNc1ccc(Br)cc(C(=O)/C=C/c2ccc(Cl)cc2)c1=O | inconclusive: 5.01 µM [inhibitor, partial curve, poor fit] | 
CCCCC(CC)C(=O)Nc1ccccc1C#N (stereo not drawn) | inconclusive: 3.55 µM [inhibitor, single point] | 
COC(=O)N/N=C\c1ccccc1OC/C=C/c1ccccc1 |  | inactive: 1.19%
Cc1cc(NS(=O)(=O)c2ccc(NC(=O)COc3c(C)ccc(C)c3C)cc2)nc(C)n1 |  | inactive: 0.183%
CCc1cc2c(=O)n(CCC(C)C)c(=S)[nH]c2s1 | inconclusive: 3.98 µM [inhibitor, single point] | 
CCOCC(=O)N(CC)Cc1ccccc1 | inconclusive: 4.47 µM [inhibitor, single point] | 
Cc1ccc(Cn2c(SCC(=O)NCc3ccccc3)nc3ccsc3c2=O)cc1 |  | inactive: -8.6%
Cc1ccccc1-c1noc(-c2ccc(NCC3CCCO3)c([N+](=O)[O-])c2)n1 (stereo not drawn) | inconclusive: 4.47 µM [inhibitor, full curve, poor fit] | 
CSc1c(C#N)c(N)nc2sc(C(=O)c3ccccc3)c(N)c12 | inconclusive: 25.1 µM [inhibitor, partial curve, poor fit] | 
COc1cc(/C=C/C(=O)CC(=O)/C=C/c2ccc(O)c(OC)c2)ccc1O | inconclusive: 22.4 µM [inhibitor, single point] | 
COC(=O)c1cc(NC(=O)c2cc3c(-c4ccccc4F)nn(C)c3s2)cc(C(=O)OC)c1 | inconclusive: 6.31 µM [inhibitor, single point] | 
Cc1cccc(CS(=O)(=O)c2nnc([C@H](Cc3ccccc3)NC(=O)OC(C)(C)C)o2)c1 |  | inactive: -3.59%
Brc1ccc2oc(-c3ccn[nH]3)cc2c1 | inconclusive: 35.5 µM [inhibitor, single point] | 
CCN=C1S/C(=C/c2ccc(-c3ccc(F)cc3)o2)C(=O)N1CC | inconclusive: 11.2 µM [inhibitor, partial curve, poor fit] | 
COc1cccc(/C=C/C(=O)OCC(=O)NCc2ccc(Cl)cc2)c1 | inconclusive: 35.5 µM [inhibitor, single point] | 
CCOc1cc(Cl)c(S(=O)(=O)NCc2cccnc2)cc1Cl | inconclusive: 5.62 µM [inhibitor, single point] | 
COc1ccc(C(=O)Nc2nc3nc(C)c(Cc4ccccc4)c(=O)n3[nH]2)cc1OC |  | inactive: 0.29%

15 of the compounds above, in CSV form.
Compound,Potency,"activity, negative = active"
O=S(=O)(Nc1nc2ccccc2nc1Cl)c1ccc2ccccc2c1,"inconclusive: 25.1 µM [inhibitor, single point]",
COC(=O)c1[nH]c2cc(OC)ccc2c1NC(=O)CN1CCN(c2cccc(C)c2)C(C)C1 (stereo not drawn),"inconclusive: 12.6 µM [inhibitor, single point]",
N#C/C(=C\Nc1ccc(Cl)cn1)S(=O)(=O)c1ccccc1,,inactive: 7.17%
CCNc1ccc(Br)cc(C(=O)/C=C/c2ccc(Cl)cc2)c1=O,"inconclusive: 5.01 µM [inhibitor, partial curve, poor fit]",
CCCCC(CC)C(=O)Nc1ccccc1C#N (stereo not drawn),"inconclusive: 3.55 µM [inhibitor, single point]",
COC(=O)N/N=C\c1ccccc1OC/C=C/c1ccccc1,,inactive: 1.19%
Cc1cc(NS(=O)(=O)c2ccc(NC(=O)COc3c(C)ccc(C)c3C)cc2)nc(C)n1,,inactive: 0.183%
CCc1cc2c(=O)n(CCC(C)C)c(=S)[nH]c2s1,"inconclusive: 3.98 µM [inhibitor, single point]",
CCOCC(=O)N(CC)Cc1ccccc1,"inconclusive: 4.47 µM [inhibitor, single point]",
Cc1ccc(Cn2c(SCC(=O)NCc3ccccc3)nc3ccsc3c2=O)cc1,,inactive: -8.6%
Cc1ccccc1-c1noc(-c2ccc(NCC3CCCO3)c([N+](=O)[O-])c2)n1 (stereo not drawn),"inconclusive: 4.47 µM [inhibitor, full curve, poor fit]",
CSc1c(C#N)c(N)nc2sc(C(=O)c3ccccc3)c(N)c12,"inconclusive: 25.1 µM [inhibitor, partial curve, poor fit]",
COc1cc(/C=C/C(=O)CC(=O)/C=C/c2ccc(O)c(OC)c2)ccc1O,"inconclusive: 22.4 µM [inhibitor, single point]",
COC(=O)c1cc(NC(=O)c2cc3c(-c4ccccc4F)nn(C)c3s2)cc(C(=O)OC)c1,"inconclusive: 6.31 µM [inhibitor, single point]",
Cc1cccc(CS(=O)(=O)c2nnc([C@H](Cc3ccccc3)NC(=O)OC(C)(C)C)o2)c1,,inactive: -3.59%

Following part.

Compound | Potency | activity, negative = active
CCCc1cc(=O)n2[nH]c(NC(=O)c3ccc(C(C)(C)C)cc3)nc2n1 | inconclusive: 35.5 µM [inhibitor, single point] | 
CCOc1ccc(/C(CCC(=O)O)=N/NC(=S)NC(C)C)cc1 | inconclusive: 22.4 µM [inhibitor, partial curve, poor fit] | 
O=C(NCCS(=O)(=O)N1CCN(c2ccccc2)CC1)C1CC(=O)N(c2ccc(F)cc2)C1 (stereo not drawn) | inactive | 
CC(C)Sc1nnc(SCC(=O)NCCCN2CCCC2=O)s1 | inconclusive: 10 µM [inhibitor, partial curve, poor fit] | 
CC(C)=CCc1cc(-c2oc3cc(O)cc(O)c3c(=O)c2O)ccc1O |  | inactive: 9.84%
Cc1ccc(C(=O)NC(=S)NCc2ccccc2)cc1Br | inconclusive: 35.5 µM [inhibitor, single point] | 
N#CC1=C(N)Oc2n[nH]c(-c3cccnc3)c2C1c1ccc([N+](=O)[O-])o1 (stereo not drawn) | inconclusive: 31.6 µM [inhibitor, single point] | 
COc1ccc(-n2nc(C(=O)NCC(=O)NCCC3=CCCCC3)c3ccccc3c2=O)c(OC)c1 |  | inactive: -4.65%
CC(c1nc2ccccc2n1Cc1ccccc1)N1CCCCC1 (stereo not drawn) | inconclusive: 35.5 µM [inhibitor, single point] | 
CC(=O)N1CCc2c(sc(NC(=O)CSc3ccccc3)c2-c2nc3ccccc3s2)C1 | inconclusive: 35.5 µM [inhibitor, single point] | 
O=C(Cn1c(=O)nc(-c2ccccc2)c2ccccc21)Nc1cccc(C(F)(F)F)c1 |  | inactive: -18.1%
Nc1c(C(=O)NCc2ccccc2)c2nc3ccccc3nc2n1-c1ccc2c(c1)OCO2 | inconclusive: 25.1 µM [inhibitor, single point] | 
CC(C)(C)OC(=O)N[C@@H](Cc1ccccc1)C(=O)NCC1CCC(C(=O)N[C@@H](CCC(N)=O)C(=O)O)CC1 (stereo partly drawn) | inconclusive: 11.2 µM [inhibitor, single point] | 
Cc1cccc(NC(=S)N/N=C2\CC(C)(C)Oc3ccc(O)cc32)c1 | inconclusive: 5.62 µM [inhibitor, single point] | 
CCC(C)NCCOc1ccc(C)cc1[N+](=O)[O-] (stereo not drawn) |  | inactive: -13.7%
Cc1ccc(C(=O)N2CCN(c3ccc(F)cc3)CC2)cc1S(=O)(=O)N1CCCCC1 | inconclusive: 4.47 µM [inhibitor, single point] | 
N#Cc1cc2ccccc2nc1SCc1ccccn1 | active: 12.6 µM | 
CCN1C(=O)c2cccc3c(N)ccc(c23)C1=O | inconclusive: 3.16 µM [inhibitor, partial curve, poor fit] | 
CSc1ccccc1NC(=O)c1ccccn1 | inconclusive: 35.5 µM [inhibitor, single point] | 
CCCSc1nnc(NC(=O)c2sc3nc(-c4cccs4)ccc3c2N)s1 | inconclusive: 14.1 µM [inhibitor, single point] | 
Cc1ccc(C2=NOC(=O)/C2=C\c2ccccc2)cc1 |  | inactive: -23.2%
O=C(N/N=C\c1cc(Br)ccc1O)c1ccc(S(=O)(=O)N2CCCCC2)cc1 | inconclusive: 31.6 µM [inhibitor, single point] | 
CCOC(=O)/C=c1/s/c(=C/c2ccc3cc(OC)ccc3c2)c(=O)n1CC(=O)NCC1CCCO1 (stereo not drawn) | active: 7.08 µM | 

Compound | Potency | activity, negative = active
Cc1cc(C(=O)CN2C(=O)C(=O)N(Cc3ccccc3)C2=O)c(C)n1-c1ccccc1F | inconclusive: 6.31 µM [inhibitor, single point] | 
Cc1cc(C(=O)NCc2ccco2)c2cc(F)ccc2n1 | inconclusive: 12.6 µM [inhibitor, single point] | 
N#C/C(=C/c1ccc(O)c(O)c1)c1nc2ccccc2[nH]1 | inconclusive: 11.2 µM [inhibitor, partial curve, poor fit] | 
O=C(NC(=S)N1CCCC1)c1ccccc1 | inconclusive: 28.2 µM [inhibitor, single point] | 
CCOC(=O)C1(Cc2ccccc2)CCN(Cc2cnn(CC)c2)CC1 | inconclusive: 3.55 µM [inhibitor, partial curve, poor fit] | 
Cc1cc(C(=O)C(C)Sc2cccc[n+]2[O-])c(C)n1-c1ccc(Cl)cc1 (stereo not drawn) | inconclusive: 22.4 µM [inhibitor, single point] | 
CCc1ccccc1NC(=S)NCC1CCN(c2ccc(OC)cc2)C1 (stereo not drawn) | inconclusive: 3.16 µM [inhibitor, single point] | 
CCC(NC(=O)OC(C)(C)C)C(=O)Oc1ccc2c3c(c(=O)oc2c1)CCC3 (stereo not drawn) |  | inactive: -2.52%
Cc1ccc2c(c1)C1CN(C)CCC1N2Sc1ccccc1[N+](=O)[O-] (stereo not drawn) |  | inactive: -3.62%
CCOc1ccccc1-n1nnc(-c2nsc(NC(=O)c3ccc(C)cc3)n2)c1C | inconclusive: 17.8 µM [inhibitor, single point] | 
CCOC(=O)c1c(-c2ccccc2)csc1NC(=S)NC | inconclusive: 35.5 µM [inhibitor, single point] | 
Cc1cccc(C(=O)NCN2CCN(c3ccccc3C#N)CC2)c1 | inconclusive: 28.2 µM [inhibitor, single point] | 
CCCc1cc(C(=O)N/N=C/c2ccc(CC)s2)c2ccccc2n1 |  | inactive: -9.66%
Cc1ccc2nc(SCc3nc4c(cnn4-c4ccccc4)c(=O)[nH]3)[nH]c2c1 | inconclusive: 35.5 µM [inhibitor, single point] | 
CCC(=O)Nc1nc2ccccc2n1CCN(C)C |  | inactive: 0.154%
CC(C)(O)C1=NOC(c2ccccc2)C1 (stereo not drawn) | inconclusive: 35.5 µM [inhibitor, single point] | 
c1ccc(CNc2nc(-c3cccs3)nc3ccccc23)cc1 | inconclusive: 5.62 µM [inhibitor, partial curve] | 
COc1cc(/C=C2\SC(=S)N(NS(=O)(=O)c3ccc(C)cc3)C2=O)ccc1O | inconclusive: 35.5 µM [inhibitor, single point] | 
CCOc1ccccc1NC(=S)NC(=O)C1CCCCC1 | inconclusive: 12.6 µM [inhibitor, single point] | 
Cc1cccc(NC(=S)Nc2ccccn2)c1 | inconclusive: 22.4 µM [inhibitor, single point] | 
COc1ccc(/C=C/C(=O)Nc2ccc(N3CCOCC3)cc2)cc1 | inconclusive: 6.31 µM [inhibitor, single point] | 
O=C(COc1ccc(Br)cc1F)NCC1(N2CCCCC2)CCCCC1 | inconclusive: 6.31 µM [inhibitor, single point] | 
